Assay results published in ChEMBL document CHEMBL1268808, “Design and optimization of new piperidines as renin inhibitors” (Bioorg Med Chem Lett, 2010).

Test: in vivo
Details: rat

## COCCCc1ccc(Cl)c(CN(C(=O)[C@H]2CNCC[C@@H]2c2ccc(OCCOc3c(Cl)cc(C)cc3Cl)cc2)C2CC2)c1
  bioavailability: 20%
